In patent publication US20240141072A1:
Results are given in words; binding and its absence hold for the method and conditions named. Some entries that bind do so weakly or less than the wild type.

Target: cynomolgus DLL3 (cynomolgus)
Assay: Octet BLI

Binder | binding
1H012 anti-DLL3 trispecific protein (protein, not shown: large carriers) EVQLVESGGGLVQPGGSLTLSCVASGSTSSINAMGWYRRAPGKQRELVAGISSDGSKVYVDSVKGRFTISRDNAKNSVYLQMNSLRAEDTAVYYCYYFRTVSGSSMPYWGQGTLVTVSS | binds
4H011 anti-DLL3 trispecific protein (protein, not shown: large carriers) EVQLVESGGGLVQPGGSLTLSCAASGSSVSRLSMAWYRQAPGKKRELVAGISVDGSTDYIDSVKGRFTISRDNAKNSVYLQMNSLRAEDTAVYYCYAYRWTTRLTYWGQGTLVTVSS | binds
